Measurements reported in PubChem BioAssay AID1259405 (NCATS, 2018)
This is an unselected part of about 50,000 reagents. Of all reagents, about 4,000 (8%) are marked active. 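Mouse siRNA library applied to hamster cells; one well for each siRNA.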 A number with no mark means an inactive call.

- Purpose: 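Knock-downs that lift recombinant protein yield in hamster ovary cells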 (primary screen)
- System: Chinese hamster CHO-K1 ovary cells with stable secreted eGFP expression
- Reagent: single siRNA against mouse genes, 0.8 pmol siRNA per well (2 µl of 400 nM stock)
- Duration: 3 days
- Read-out: 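Percent of the per-plate non-targeting control median for intracellular GFP per well by laser scanning cytometry and for cell viability by ATP luminescence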
- Scale: GFP, % of control: higher = more GFP per well, higher productivity; viability (ATP), % of control: higher = more viable cells (more ATP)
- Rule for the call: 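a knock-down is called active if GFP reaches 120% or more of non-targeting control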

Gene | PubChem SID | GFP, % of control | viability (ATP), % of control
Crybb1 (GeneID 12960) | SID363550177 | 152 (active) | 72.6
Crybb1 (GeneID 12960) | SID363564686 | 51.4 | 62.8
Crybb1 (GeneID 12960) | SID363588231 | 143 (active) | 123
Gja6 (GeneID 414089) | SID363541735 | 102 | 78.9
Gja6 (GeneID 414089) | SID363553327 | 99.9 | 88
Gja6 (GeneID 414089) | SID363566651 | 60.2 | 54.6
Timm22 (GeneID 56322) | SID363547737 | 96.2 | 33.3
Timm22 (GeneID 56322) | SID363558506 | 104 | 98.8
Timm22 (GeneID 56322) | SID363560264 | 85.7 | 104
Xab2 (GeneID 67439) | SID363569201 | 98.3 | 108
Xab2 (GeneID 67439) | SID363583633 | 75.6 | 91
Ppp2r2b (GeneID 72930) | SID363575228 | 105 | 103
Ppp2r2b (GeneID 72930) | SID363580860 | 54.1 | 63.7
Ppp2r2b (GeneID 72930) | SID363582972 | 89 | 96.1
Ddr2 (GeneID 18214) | SID363544208 | 73 | 103
Ddr2 (GeneID 18214) | SID363550536 | 61.6 | 75.2
Ddr2 (GeneID 18214) | SID363557085 | 67.4 | 86.9
Tbc1d22b (GeneID 381085) | SID363545295 | 52.6 | 75.1
Tbc1d22b (GeneID 381085) | SID363548808 | 71.1 | 75.3
Tbc1d22b (GeneID 381085) | SID363562614 | 108 | 59.2
Usb1 (GeneID 101985) | SID363542914 | 65 | 62.9
Usb1 (GeneID 101985) | SID363546431 | 58.6 | 56.9
Usb1 (GeneID 101985) | SID363548187 | 55.7 | 62.6
Csad (GeneID 246277) | SID363573120 | 77.3 | 84.3
Csad (GeneID 246277) | SID363577696 | 41.2 | 45.8
Csad (GeneID 246277) | SID363581216 | 73.2 | 76
Ckb (GeneID 12709) | SID363570863 | 98 | 73
Ca11 (GeneID 12348) | SID363581630 | 49.2 | 80
Ca11 (GeneID 12348) | SID363589124 | 129 (active) | 95.7
Rnf17 (GeneID 30054) | SID363555051 | 91.3 | 79.5
Rnf17 (GeneID 30054) | SID363568498 | 75.4 | 67.8
Rnf17 (GeneID 30054) | SID363586557 | 61.2 | 85.6
Uba1 (GeneID 22201) | SID363541691 | 69 | 75.9
Uba1 (GeneID 22201) | SID363553283 | 92.8 | 63.9
Uba1 (GeneID 22201) | SID363566607 | 67.8 | 59.4
Cnot9 (GeneID 58184) | SID363554896 | 72.8 | 79
Cnot9 (GeneID 58184) | SID363568343 | 76.6 | 75.3
Cnot9 (GeneID 58184) | SID363586402 | 76.9 | 95.4
Tmem126b (GeneID 68472) | SID363540678 | 62.5 | 47.8
Tmem126b (GeneID 68472) | SID363543129 | 53 | 65.5
Tmem126b (GeneID 68472) | SID363552622 | 131 (active) | 120
Pde6c (GeneID 110855) | SID363569817 | 108 | 79.2
Pde6c (GeneID 110855) | SID363576857 | 91.6 | 75.7
Pde6c (GeneID 110855) | SID363578265 | 53.9 | 90.5
Zfp180 (GeneID 210135) | SID363573837 | 55.7 | 78.2
Zfp180 (GeneID 210135) | SID363581581 | 46.2 | 74.3
Zfp180 (GeneID 210135) | SID363584045 | 67.5 | 105
Ndufs2 (GeneID 226646) | SID363575216 | 99.7 | 80.7
Ndufs2 (GeneID 226646) | SID363580848 | 75.7 | 71
Ndufs2 (GeneID 226646) | SID363582960 | 106 | 75.3
Rpsa (GeneID 16785) | SID363540456 | 45.3 | 73.4
Rpsa (GeneID 16785) | SID363542208 | 31.8 | 38.4
Rpsa (GeneID 16785) | SID363567124 | 104 | 104
Dynlrb2 (GeneID 75465) | SID363572401 | 60.8 | 46.8
Dynlrb2 (GeneID 75465) | SID363574161 | 89.3 | 98.3

Limited to “GFP, % of control” (14 entries from above):
Rnf17 (GeneID 30054) [SID363568498]: 75.4
Rnf17 (GeneID 30054) [SID363586557]: 61.2
Uba1 (GeneID 22201) [SID363541691]: 69
Uba1 (GeneID 22201) [SID363553283]: 92.8
Uba1 (GeneID 22201) [SID363566607]: 67.8
Cnot9 (GeneID 58184) [SID363554896]: 72.8
Cnot9 (GeneID 58184) [SID363568343]: 76.6
Cnot9 (GeneID 58184) [SID363586402]: 76.9
Tmem126b (GeneID 68472) [SID363540678]: 62.5
Tmem126b (GeneID 68472) [SID363543129]: 53
Tmem126b (GeneID 68472) [SID363552622]: 131 (active)
Pde6c (GeneID 110855) [SID363569817]: 108
Pde6c (GeneID 110855) [SID363576857]: 91.6
Pde6c (GeneID 110855) [SID363578265]: 53.9

Further reagents follow:
Gene | PubChem SID | GFP, % of control | viability (ATP), % of control
Skap2 (GeneID 54353) | SID363555025 | 52.1 | 80.4
Skap2 (GeneID 54353) | SID363568472 | 45.8 | 37.4
Skap2 (GeneID 54353) | SID363586531 | 66.2 | 85.2
Mmp15 (GeneID 17388) | SID363582362 | 50.7 | 85.8
Mmp15 (GeneID 17388) | SID363584122 | 120 (active) | 80.5
Kl (GeneID 16591) | SID363545779 | 57.5 | 66.5
Kl (GeneID 16591) | SID363549292 | 69.1 | 80
Kl (GeneID 16591) | SID363563098 | 86.1 | 73.7
Myh7 (GeneID 140781) | SID363572449 | 50.8 | 42.7
Myh7 (GeneID 140781) | SID363574209 | 78.6 | 91.2
Hoxb13 (GeneID 15408) | SID363569577 | 62.3 | 67.8
Hoxb13 (GeneID 15408) | SID363577321 | 94.8 | 84.9
Hoxb13 (GeneID 15408) | SID363578729 | 53.1 | 106
Scube3 (GeneID 268935) | SID363553617 | 81.7 | 83.7
Scube3 (GeneID 268935) | SID363561574 | 225 (active) | 87.5
Scube3 (GeneID 268935) | SID363565312 | 105 | 45.3
1600014C10Rik (GeneID 72244) | SID363540724 | 116 | 106
1600014C10Rik (GeneID 72244) | SID363543175 | 79.1 | 90.7
1600014C10Rik (GeneID 72244) | SID363552668 | 127 (active) | 89.6
Tpsg1 (GeneID 26945) | SID363574530 | 103 | 81.7
Tpsg1 (GeneID 26945) | SID363575586 | 49.2 | 43.2
Tpsg1 (GeneID 26945) | SID363580162 | 53.4 | 87.2
Otop2 (GeneID 237987) | SID363553637 | 40.9 | 44
Otop2 (GeneID 237987) | SID363561594 | 45.1 | 46.9
Otop2 (GeneID 237987) | SID363565332 | 184 (active) | 87.2
Otop2 (GeneID 237987) | SID363589644 | 79.4 | 80.2
Otop2 (GeneID 237987) | SID363589645 | 45.7 | 98.2
Otop2 (GeneID 237987) | SID363589646 | 112 | 92.4
Slc16a2 (GeneID 20502) | SID363574638 | 95.5 | 95
Slc16a2 (GeneID 20502) | SID363575694 | 71.1 | 42.4
Slc16a2 (GeneID 20502) | SID363580270 | 72.3 | 71.1
